Data source: PubChem BioAssay AID1259425 (University of Nebraska Medical Center, 2018)

Test: 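Find knockdowns that reproduce the gene expression pattern seen when KSR1 is lost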 (primary screen)
Cell system: HCT116 human colon cancer cells
Reagent: siRNA pool against human genes, 50 nM siRNA
Measurement: 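mRNA of six signature genes measured together by branched-DNA assay after 50 nM siRNA pool, blank removed, divided by geometric mean of two housekeeping genes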
Direction: BNIP3L mRNA: higher = more BNIP3L transcript after knockdown; NDRG1 mRNA: higher = more NDRG1 transcript after knockdown
This is a random part of about 14,000 deposited reagents. The numbers tell different reagents against one gene apart. Not all columns of the deposit are shown. Not stated in the record: the time to read-out.

Knock-down of C19orf48P gave: BNIP3L mRNA, set 1 = 0.0989; NDRG1 mRNA, set 1 = 0.318.
For SLC1A6, the values are BNIP3L mRNA, set 1 = 0.0938; NDRG1 mRNA, set 1 = 0.225.
HMGN3 gave BNIP3L mRNA, set 1 = 0.0817; NDRG1 mRNA, set 1 = 0.181.
TUT4 scored BNIP3L mRNA, set 1 = 0.137; NDRG1 mRNA, set 1 = 0.229.
For AURKC, the entry reads BNIP3L mRNA, set 1 = 0.221; NDRG1 mRNA, set 1 = 0.192.
After knock-down of RREB1, the record shows BNIP3L mRNA, set 1 = 0.0609; NDRG1 mRNA, set 1 = 0.128.
After knock-down of AOC3, the record shows BNIP3L mRNA, set 1 = 0.188; NDRG1 mRNA, set 1 = 0.18.
COL13A1 scored BNIP3L mRNA, set 1 = 0.103; NDRG1 mRNA, set 1 = 0.111.
With knock-down of GGT5, the record shows BNIP3L mRNA, set 1 = 0.171; NDRG1 mRNA, set 1 = 0.0281.
PHC3 showed BNIP3L mRNA, set 1 = 0.212; NDRG1 mRNA, set 1 = 0.431.
With knock-down of RAP2A, the screen gave BNIP3L mRNA, set 1 = 0.134; NDRG1 mRNA, set 1 = 0.185.
Knock-down of PLAAT1 came out at: BNIP3L mRNA, set 1 = 0.604; NDRG1 mRNA, set 1 = 0.417.
Depletion of CDSN gave: BNIP3L mRNA, set 1 = 0.128; NDRG1 mRNA, set 1 = 0.204.
After knock-down of C1QBP, the screen gave BNIP3L mRNA, set 1 = 0.0585; NDRG1 mRNA, set 1 = 0.118.
ATP6V1E1 gave BNIP3L mRNA, set 1 = 0.226; NDRG1 mRNA, set 1 = 0.222.
Knock-down of TSPAN9 #1 resulted in: BNIP3L mRNA, set 1 = 0.0771; NDRG1 mRNA, set 1 = 0.195.
TSPAN9 #2 scored BNIP3L mRNA, set 1 = 0.107; NDRG1 mRNA, set 1 = 0.0999.
RIC1 gave BNIP3L mRNA, set 1 = 0.106; NDRG1 mRNA, set 1 = 0.209.
After knock-down of A2M the results were BNIP3L mRNA, set 1 = 0.09; NDRG1 mRNA, set 1 = 0.163.
